Results: article PMC2820552
These are yes or no findings as the source states them, for the method shown. Binding seen in cells or lysates may run through a third protein. Some binding calls cover weakened binding; strength is not graded here.

Amino acid sequences for entries named in this document (tags omitted). A change or cut given only in a name is not applied to a line headed by its entry. Chains listed by the source or under a name are the forms on record and can include a tag or linker.
UniProt Q8N122: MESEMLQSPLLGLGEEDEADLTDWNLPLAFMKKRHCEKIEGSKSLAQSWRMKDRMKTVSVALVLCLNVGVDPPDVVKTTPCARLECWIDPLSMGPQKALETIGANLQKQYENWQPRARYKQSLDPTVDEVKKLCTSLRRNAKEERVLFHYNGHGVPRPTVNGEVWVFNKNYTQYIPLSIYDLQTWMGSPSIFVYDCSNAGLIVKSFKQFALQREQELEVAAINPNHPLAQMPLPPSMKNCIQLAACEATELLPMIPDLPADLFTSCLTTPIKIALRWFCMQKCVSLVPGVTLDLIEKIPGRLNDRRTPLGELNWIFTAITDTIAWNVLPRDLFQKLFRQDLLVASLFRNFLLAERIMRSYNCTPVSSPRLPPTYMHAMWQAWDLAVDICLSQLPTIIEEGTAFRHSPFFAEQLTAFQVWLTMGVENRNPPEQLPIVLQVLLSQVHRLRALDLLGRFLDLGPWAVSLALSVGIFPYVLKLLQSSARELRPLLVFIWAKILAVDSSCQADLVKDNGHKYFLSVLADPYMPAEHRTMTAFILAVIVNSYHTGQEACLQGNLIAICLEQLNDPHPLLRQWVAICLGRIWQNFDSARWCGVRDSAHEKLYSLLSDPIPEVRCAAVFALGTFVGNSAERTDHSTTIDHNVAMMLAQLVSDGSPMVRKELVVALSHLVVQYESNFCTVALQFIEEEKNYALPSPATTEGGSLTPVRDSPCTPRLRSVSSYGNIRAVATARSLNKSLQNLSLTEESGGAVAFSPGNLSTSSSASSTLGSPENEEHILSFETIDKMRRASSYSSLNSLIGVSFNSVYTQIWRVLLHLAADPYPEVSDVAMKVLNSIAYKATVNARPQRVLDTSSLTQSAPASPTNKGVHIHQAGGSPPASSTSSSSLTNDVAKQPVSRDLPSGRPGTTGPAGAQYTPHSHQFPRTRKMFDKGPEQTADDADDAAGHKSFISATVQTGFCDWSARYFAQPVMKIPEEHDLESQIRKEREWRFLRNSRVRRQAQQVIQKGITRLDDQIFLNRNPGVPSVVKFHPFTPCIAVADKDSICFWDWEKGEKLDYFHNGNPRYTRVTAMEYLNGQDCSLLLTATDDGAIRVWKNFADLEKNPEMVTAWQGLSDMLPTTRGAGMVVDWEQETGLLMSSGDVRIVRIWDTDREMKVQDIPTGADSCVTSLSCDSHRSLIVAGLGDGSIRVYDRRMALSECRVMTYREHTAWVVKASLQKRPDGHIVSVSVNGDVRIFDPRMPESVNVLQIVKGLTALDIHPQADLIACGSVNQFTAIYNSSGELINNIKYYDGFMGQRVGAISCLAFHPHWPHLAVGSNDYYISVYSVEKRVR
Myc-raptor Ser696/Thr706/Ser711AAA (3A), transiently expressed in HEK293T cells (Q8N122, form named): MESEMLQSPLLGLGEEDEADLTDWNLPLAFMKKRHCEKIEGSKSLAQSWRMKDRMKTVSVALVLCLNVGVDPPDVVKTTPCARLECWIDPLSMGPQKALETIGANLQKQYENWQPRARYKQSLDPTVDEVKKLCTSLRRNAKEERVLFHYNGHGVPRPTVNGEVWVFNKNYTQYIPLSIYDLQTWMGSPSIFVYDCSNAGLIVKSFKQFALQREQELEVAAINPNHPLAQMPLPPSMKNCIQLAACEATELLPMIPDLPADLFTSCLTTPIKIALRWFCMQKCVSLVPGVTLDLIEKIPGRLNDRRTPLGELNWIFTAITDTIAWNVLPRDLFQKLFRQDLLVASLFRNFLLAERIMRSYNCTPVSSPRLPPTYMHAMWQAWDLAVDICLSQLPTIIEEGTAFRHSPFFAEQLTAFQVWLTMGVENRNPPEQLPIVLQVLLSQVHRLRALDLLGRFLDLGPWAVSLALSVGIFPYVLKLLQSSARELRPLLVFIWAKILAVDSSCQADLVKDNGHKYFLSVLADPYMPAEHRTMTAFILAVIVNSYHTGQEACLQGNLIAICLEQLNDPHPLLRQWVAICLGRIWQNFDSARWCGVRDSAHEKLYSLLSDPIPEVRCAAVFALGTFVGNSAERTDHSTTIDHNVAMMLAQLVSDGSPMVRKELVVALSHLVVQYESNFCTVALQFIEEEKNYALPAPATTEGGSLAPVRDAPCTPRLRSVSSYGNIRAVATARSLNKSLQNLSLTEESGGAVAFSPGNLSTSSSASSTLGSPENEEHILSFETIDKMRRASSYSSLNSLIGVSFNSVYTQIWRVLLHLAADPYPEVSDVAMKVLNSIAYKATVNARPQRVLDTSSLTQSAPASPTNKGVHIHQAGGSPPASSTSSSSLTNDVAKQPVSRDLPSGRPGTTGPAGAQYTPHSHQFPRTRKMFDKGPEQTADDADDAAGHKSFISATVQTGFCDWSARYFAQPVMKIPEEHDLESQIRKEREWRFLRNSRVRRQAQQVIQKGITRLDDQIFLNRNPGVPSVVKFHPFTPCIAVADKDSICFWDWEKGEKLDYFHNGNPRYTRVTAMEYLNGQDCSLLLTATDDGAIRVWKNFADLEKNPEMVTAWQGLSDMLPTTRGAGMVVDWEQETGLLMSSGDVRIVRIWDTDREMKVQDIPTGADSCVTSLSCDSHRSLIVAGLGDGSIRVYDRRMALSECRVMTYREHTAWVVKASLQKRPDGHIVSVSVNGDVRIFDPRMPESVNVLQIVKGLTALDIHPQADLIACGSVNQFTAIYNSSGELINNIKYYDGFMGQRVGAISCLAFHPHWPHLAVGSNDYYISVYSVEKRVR
UniProt P23443: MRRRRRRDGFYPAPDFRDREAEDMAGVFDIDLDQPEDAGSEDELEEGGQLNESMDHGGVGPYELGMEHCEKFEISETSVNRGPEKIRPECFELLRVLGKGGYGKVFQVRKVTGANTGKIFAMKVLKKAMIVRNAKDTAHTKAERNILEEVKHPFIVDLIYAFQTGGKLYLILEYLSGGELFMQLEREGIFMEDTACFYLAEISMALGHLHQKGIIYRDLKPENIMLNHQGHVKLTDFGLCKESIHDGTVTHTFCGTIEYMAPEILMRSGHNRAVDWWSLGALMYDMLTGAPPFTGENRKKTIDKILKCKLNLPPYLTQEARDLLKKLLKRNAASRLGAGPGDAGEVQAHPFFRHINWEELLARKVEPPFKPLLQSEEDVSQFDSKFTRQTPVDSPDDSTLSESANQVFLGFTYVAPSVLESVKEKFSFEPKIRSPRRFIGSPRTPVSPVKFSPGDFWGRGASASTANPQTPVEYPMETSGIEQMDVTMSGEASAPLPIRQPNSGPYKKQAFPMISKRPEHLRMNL
UniProt P14635: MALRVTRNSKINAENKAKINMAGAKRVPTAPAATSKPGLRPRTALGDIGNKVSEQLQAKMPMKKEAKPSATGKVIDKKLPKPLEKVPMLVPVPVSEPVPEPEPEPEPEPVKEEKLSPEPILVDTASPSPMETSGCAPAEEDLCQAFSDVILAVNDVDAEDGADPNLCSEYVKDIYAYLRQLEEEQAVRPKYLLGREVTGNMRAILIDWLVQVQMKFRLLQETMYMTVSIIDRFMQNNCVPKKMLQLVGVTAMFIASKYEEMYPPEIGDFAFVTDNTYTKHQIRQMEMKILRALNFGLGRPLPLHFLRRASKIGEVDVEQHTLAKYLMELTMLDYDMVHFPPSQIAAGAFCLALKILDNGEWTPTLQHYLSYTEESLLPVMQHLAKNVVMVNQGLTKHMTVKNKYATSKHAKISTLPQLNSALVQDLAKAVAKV

What was measured:
[1] = biological target: Myc-raptor (wild-type), transiently expressed in HEK293T cells (human) (UniProt Q8N122); test: co-IP; HEK293T cells transiently co-transfected; anti-myc immunoprecipitation of myc-raptor (wt or 3A), blots for Flag and HA tags; lysis buffer 2 (40 mM HEPES pH 7.5, 150 mM NaCl, 0.3% CHAPS); cells with or without nocodazole for 16 h
[2] = biological target: Myc-raptor Ser696/Thr706/Ser711AAA (3A), transiently expressed in HEK293T cells (human) (UniProt Q8N122); test: as above
Flag-S6K = Flag-S6K (UniProt P23443); test: co-IP; reciprocal: HEK293T cells transiently co-transfected with myc-raptor (wt or 3A) and Flag-S6K or Flag-4EBP1; anti-Flag immunoprecipitation, blot for raptor; lysis buffer 2 (0.3% CHAPS); cells with or without nocodazole for 16 h
[3] = biological target: myc-wt raptor, stably expressed in Hela cells with knockdown of endogenous raptor (human) (UniProt Q8N122); test: co-IP; Hela cells stably expressing myc-raptor (wt or 3A) with knockdown of endogenous raptor; anti-myc immunoprecipitation, blot for endogenous proteins; lysis buffer 2 (40 mM HEPES pH 7.5, 150 mM NaCl, 0.3% CHAPS); cells with or without taxol (16 h) or nocodazole (16 h), then Torin1 or …

Question: What does the source list for Flag-S6K (from UniProt P23443 1-525)?
Answer: binding [1]: binds; binding [2]: binds

Question: For “Myc-raptor (wild-type), transiently expressed in HEK293T cells (from UniProt Q8N122 1-1335)”, which binding (Flag-S6K) is on record?
Answer: binds

Question: For “Myc-raptor Ser696/Thr706/Ser711AAA (3A), transiently expressed in HEK293T cells (from UniProt Q8N122 1-1335)”, which binding (Flag-S6K) is on record?
Answer: binds

Question: With “endogenous cyclin B (from UniProt P14635 1-433)” as the substance, how does the binding [3] read?
Answer: binds
